For assay [1], the target named is Myc-SMURF2 (UniProt Q9HAU4). Briefly: co-IP; immunoprecipitation with anti-Myc antibodies from lysates of co-transfected HEK293T cells; ELB buffer (250 mM NaCl, 0.5% Nonidet P-40, 50 mM HEPES pH 7.3), overnight at 4 °C, protein A or G sepharose; immunoblot. For orientation: In western blotting, separated proteins are transferred to a membrane and probed.
In assay [2] the target is Myc-SMURF2 (K734R) (UniProt Q9HAU4). The description is as above.

Protein sequences, listed by entry. Tags and fused reporters are not part of them. Lines headed by an entry give the natural chain unless they say otherwise; changes in a name come on top.
UniProt Q9HAU4: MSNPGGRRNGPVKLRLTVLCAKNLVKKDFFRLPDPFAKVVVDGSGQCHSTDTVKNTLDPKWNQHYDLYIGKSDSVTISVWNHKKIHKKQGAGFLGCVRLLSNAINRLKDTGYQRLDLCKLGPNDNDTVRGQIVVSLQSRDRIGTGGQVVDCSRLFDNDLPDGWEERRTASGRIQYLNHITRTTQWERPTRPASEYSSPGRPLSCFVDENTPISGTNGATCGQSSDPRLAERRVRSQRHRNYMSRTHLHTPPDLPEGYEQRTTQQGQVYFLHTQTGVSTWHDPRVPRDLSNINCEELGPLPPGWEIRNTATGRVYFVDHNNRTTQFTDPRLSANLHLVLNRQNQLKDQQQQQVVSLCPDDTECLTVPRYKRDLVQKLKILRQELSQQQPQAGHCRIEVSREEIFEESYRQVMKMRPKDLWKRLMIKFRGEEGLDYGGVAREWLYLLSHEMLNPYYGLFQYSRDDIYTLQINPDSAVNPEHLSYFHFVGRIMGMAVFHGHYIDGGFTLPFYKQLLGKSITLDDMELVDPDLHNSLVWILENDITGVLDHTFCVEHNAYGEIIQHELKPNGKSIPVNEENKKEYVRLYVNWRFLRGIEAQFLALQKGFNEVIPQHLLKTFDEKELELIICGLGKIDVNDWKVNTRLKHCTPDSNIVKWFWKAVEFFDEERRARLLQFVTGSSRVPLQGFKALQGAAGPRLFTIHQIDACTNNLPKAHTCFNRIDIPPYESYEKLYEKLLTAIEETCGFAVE
UniProt O15105: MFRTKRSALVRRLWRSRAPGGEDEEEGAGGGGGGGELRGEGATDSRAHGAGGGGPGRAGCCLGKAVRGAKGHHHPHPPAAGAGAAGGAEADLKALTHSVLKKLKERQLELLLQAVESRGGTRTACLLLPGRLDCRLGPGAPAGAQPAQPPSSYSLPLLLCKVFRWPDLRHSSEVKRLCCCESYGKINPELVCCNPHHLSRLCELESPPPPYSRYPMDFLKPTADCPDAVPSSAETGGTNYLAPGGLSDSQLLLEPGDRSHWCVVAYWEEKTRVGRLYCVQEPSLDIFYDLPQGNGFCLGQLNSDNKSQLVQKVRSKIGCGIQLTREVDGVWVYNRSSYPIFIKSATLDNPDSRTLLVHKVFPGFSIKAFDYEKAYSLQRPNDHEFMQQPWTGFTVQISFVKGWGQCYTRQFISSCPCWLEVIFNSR

No constants are given. Whether binding was seen depends on the method and setting. In cells and extracts the contact can be indirect. Some entries that bind do so weakly or less than the wild type. Tags and fused reporters may be left off the sequences shown.

Take Flag-SMAD7 (from UniProt O15105 1-426): the binding entry in assay [1] and in assay [2] was “binds” throughout.

B1: Flag-USP15 (enzyme, UniProt Q9Y4E8-2 1-952)
chain: MAEGGAADLDTQRSDIATLLKTSLRKGDTWYLVDSRWFKQWKKYVGFDSWDKYQMGDQNVYPGPIDNSGLLKDGDAQSLKEHLIDELDYILLPTEGWNKLVSWYTLMEGQEPIARKVVEQGMFVKHCKVEVYLTELKLCENGNMNNVVTRRFSKADTIDTIEKEIRKIFSIPDEKETRLWNKYMSNTFEPLNKPDSTIQDAGLYQGQVLVIEQKNEDGTWPRGPSTPNVKNSNYCLPSYTAYKNYDYSEPGRNNEQPGLCGLSNLGNTCFMNSAIQCLSNTPPLTEYFLNDKYQEELNFDNPLGMRGEIAKSYAELIKQMWSGKFSYVTPRAFKTQVGRFAPQFSGYQQQDCQELLAFLLDGLHEDLNRIRKKPYIQLKDADGRPDKVVAEEAWENHLKRNDSIIVDIFHGLFKSTLVCPECAKISVTFDPFCYLTLPLPMKKERTLEVYLVRMDPLTKPMQYKVVVPKIGNILDLCTALSALSGIPADKMIVTDIYNHRFHRIFAMDENLSSIMERDDIYVFEININRTEDTEHVIIPVCLREKFRHSSYTHHTGSSLFGQPFLMAVPRNNTEDKLYNLLLLRMCRYVKISTETEETEGSLHCCKDQNINGNGPNGIHEEGSPSEMETDEPDDESSQDQELPSENENSQSEDSVGGDNDSENGLCTEDTCKGQLTGHKKRLFTFQFNNLGNTDINYIKDDTRHIRFDDRQLRLDERSFLALDWDPDLKKRYFDENAAEDFEKHESVEYKPPKKPFVKLKDCIELFTTKEKLGAEDPWYCPNCKEHQQATKKLDLWSLPPVLVVHLKRFSYSRYMRDKLDTLVDFPINDLDMSEFLINPNAGPCRYNLIAVSNHYGGMGGGHYTAFAKNKDDGKWYYFDDSSVSTASEDQIVSKAAYVLFYQRQDTFSGTGFFPLDRETKGASAATGIPLESDEDSNDNDNDIENENCMHTN
As to B1, the binding result in assay [1] and in assay [2] was “binds” throughout.

The values are drawn from article PMC4593006.
